Data: patent publication US20220143136A1, “USE OF ANNEXINS IN PREVENTING AND TREATING MUSCLE MEMBRANE INJURY” (NORTHWESTERN UNIVERSITY, priority 2018, published 2022)
Some entries share one result that the patent states for a list of compounds.

Test system: myofibers
Assay: Annexin repair cap formation after laser injury at multiple Ca2+ concentrations
Format: cell-based, mouse
Conditions: fluorescently tagged annexin expressed in myofibers
Description: Electroporation, myofiber isolation, laser injury, cap and vesicle measurement. Flexor digitorum brevis (FDB) fibers were transfected with endo-free plasmid DNA by in vivo electroporation. Methods were described previously in (Demonbreun and McNally, 2015; Demonbreun et al., 2016b; DiFranco et al., 2009). Z-stack projections were acquired from consecutive acquisitions after the final time-lapse frame, approximately 4 minutes post damage, with a […] step size between slices. Z-stack renderings were constructed in FIJI. Measurement of the cap area and feret diameter were conducted from a single slice near the middle of the z-stack using FIJI imaging tools. Fibers expressing similar levels of tagged or GCaMP5G protein were compared. GCaMP5G Ca^2+ fluorescence was measured from the acquired timelapse images, using a standard rectangular ROI, placed inside the myofiber below the site of damage using FIJI. Fluorescence was expressed as F/F0. External vesicle number and GCaMP5G area were measured from endpoint z-stacks and max projection images using FIJI. Vesicles were considered external if they were found outside the sarcolemma assessed in brightfield and fluorescent channels. […]
Calcium kinetics. […] Kinetic parameters were calculated using Prism Graphpad.
Electroporation, myofiber isolation, laser injury, cap and vesicle measurement. […] Fluorescence was expressed as F/F0. […]

B1: annexin A6: annexin A6 with carboxyl-terminal turboGFP or tdTomato tag, expressed from plasmid electroporated into myofibers (protein, UniProt P14824 2-673, looked up)
Annexin A6: AKIAQGAMYRGSVHDFPEFDANQDAEALYTAMKGFGSDKESILELITSRSNKQRQEICQNYKSLYGKDLIEDLKYELTGKFERLIVNLMRPLAYCDAKEIKDAISGVGTDEKCLIEILASRTNEQMHQLVAAYKDAYERDLESDIIGDTSGHFQKMLVVLLQGTRENDDVVSEDLVQQDVQDLYEAGELKWGTDEAQFIYILGNRSKQHLRLVFDEYLKTTGKPIEASIRGELSGDFEKLMLAVVKCIRSTPEYFAERLFKAMKGLGTRDNTLIRIMVSRSELDMLDIREIFRTKYEKSLYSMIKNDTSGEYKKALLKLCGGDDDAAGQFFPEAAQVAYQMWELSAVSRVELKGTVCAANDFNPDADAKALRKAMKGIGTDEATIIDIVTHRSNAQRQQIRQTFKSHFGRDLMADLKSEISGDLARLILGLMMPPAHYDAKQLKKAMEGAGTDEKTLIEILATRTNAEIRAINEAYKEDYHKSLEDALSSDTSGHFRRILISLATGNREEGGENRDQAQEDAQVAAEILEIADTPSGDKTSLETRFMTVLCTRSYPHLRRVFQEFIKKTNYDIEHVIKKEMSGDVKDAFVAIVQSVKNKPLFFADKLYKSMKGAGTDEKTLTRVMVSRSEIDLLNIRREFIEKYDKSLHQAIEGDTSGDFMKALLALCGGED
modifications: C-terminal turboGFP or tdTomato tag
notes: annexin A6 with carboxyl-terminal turboGFP or tdTomato tag, expressed from plasmid electroporated into myofibers
  lowest Ca2+ concentration at which a discernable repair cap formed: ≥ 0.1 mM

B2: annexin A1: annexin A1 with carboxyl-terminal turboGFP or tdTomato tag, expressed from plasmid in myofibers (protein, UniProt P10107 2-346, looked up)
Annexin A1: AMVSEFLKQARFLENQEQEYVQAVKSYKGGPGSAVSPYPSFNVSSDVAALHKAIMVKGVDEATIIDILTKRTNAQRQQIKAAYLQENGKPLDEVLRKALTGHLEEVVLAMLKTPAQFDADELRGAMKGLGTDEDTLIEILTTRSNEQIREINRVYREELKRDLAKDITSDTSGDFRKALLALAKGDRCQDLSVNQDLADTDARALYEAGERRKGTDVNVFTTILTSRSFPHLRRVFQNYGKYSQHDMNKALDLELKGDIEKCLTTIVKCATSTPAFFAEKLYEAMKGAGTRHKALIRIMVSRSEIDMNEIKVFYQKKYGISLCQAILDETKGDYEKILVALCGGN
modifications: C-terminal turboGFP or tdTomato tag
notes: annexin A1 with carboxyl-terminal turboGFP or tdTomato tag, expressed from plasmid in myofibers
  lowest Ca2+ concentration at which a discernable repair cap formed: ≥ 0.1 mM
